PMC6683157
The exact form of at least one protein or probe is not confirmed. The comparison behind a weaker result is the experiment's own reference, which may not be listed here.

System: Csm2 (wild type) + Psy3 (wild type)
Assay: EMSA
Details: U32 of strand 2 = dU, EMSA: 25 mM Tris-HCl pH 8.0, 50 mM NaCl, 1 mM DTT, 100 ug/mL BSA, 5% glycerol, 25 C, recombinant protein, protein details: N-terminal 6xHis-TEV, label: 3' Cy3 on X01

Sequence | binding result (similar to double-flap) | also measured
GACGCTGCCGAATTCTACCAGTGCCTTGCTAGGACATCTTTGCCCACCTGCAGGTTCACCC / ATCGATAGTCGGATCCTCTAGACAGCTCCATUTAGCAAGGCACTGGTAGAATTCGGCAGCGT / ATGGAGCTGTCTAGAGGATCCGACTATCGA [Cy3 3' flap (X01/X04/DS3)] | binds | –
GACGCTGCCGAATTCTACCAGTGCCTTGCTAGGACATCTTTGCCCACCTGCAGGTTCACCC / ATCGATAGTCGGATCCTCTAGACAGCTCCATUTAGCAAGGCACTGGTAGAATTCGGCAGCGT / TGGGTGAACCTGCAGGTGGGCAAAGATGTCC / ATGGAGCTGTCTAGAGGATCCGACTATCGA [Cy3 static replication fork (X01/X04/DS2/DS3)] | – | binding result (decreased affinity vs flaps): binds more weakly
GACGCTGCCGAATTCTACCAGTGCCTTGCTAGGACATCTTTGCCCACCTGCAGGTTCACCC / ATCGATAGTCGGATCCTCTAGACAGCTCCATUTAGCAAGGCACTGGTAGAATTCGGCAGCGT / TGGGTGAACCTGCAGGTGGGCAAAGATGTCC [Cy3 5' flap (X01/X04/DS2)] | binds | –
GACGCTGCCGAATTCTACCAGTGCCTTGCTAGGACATCTTTGCCCACCTGCAGGTTCACCC / ATCGATAGTCGGATCCTCTAGACAGCTCCATUTAGCAAGGCACTGGTAGAATTCGGCAGCGT [Cy3 double-flap (X01/X04)] | – | binding result: binds
